Assay results reported in the supplement of paper PMC10849652.
Some of the results follow.

By UniProt entry, the sequences of proteins in these tests, tags left out. Where a name states a change or a piece, a line headed by the entry shows the natural chain unless it says otherwise.
UniProt O43324: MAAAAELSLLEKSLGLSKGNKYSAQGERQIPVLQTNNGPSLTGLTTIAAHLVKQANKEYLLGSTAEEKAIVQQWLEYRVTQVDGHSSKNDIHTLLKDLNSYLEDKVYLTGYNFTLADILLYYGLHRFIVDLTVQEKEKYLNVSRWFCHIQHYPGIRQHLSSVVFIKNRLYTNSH
UniProt Q9NZN4: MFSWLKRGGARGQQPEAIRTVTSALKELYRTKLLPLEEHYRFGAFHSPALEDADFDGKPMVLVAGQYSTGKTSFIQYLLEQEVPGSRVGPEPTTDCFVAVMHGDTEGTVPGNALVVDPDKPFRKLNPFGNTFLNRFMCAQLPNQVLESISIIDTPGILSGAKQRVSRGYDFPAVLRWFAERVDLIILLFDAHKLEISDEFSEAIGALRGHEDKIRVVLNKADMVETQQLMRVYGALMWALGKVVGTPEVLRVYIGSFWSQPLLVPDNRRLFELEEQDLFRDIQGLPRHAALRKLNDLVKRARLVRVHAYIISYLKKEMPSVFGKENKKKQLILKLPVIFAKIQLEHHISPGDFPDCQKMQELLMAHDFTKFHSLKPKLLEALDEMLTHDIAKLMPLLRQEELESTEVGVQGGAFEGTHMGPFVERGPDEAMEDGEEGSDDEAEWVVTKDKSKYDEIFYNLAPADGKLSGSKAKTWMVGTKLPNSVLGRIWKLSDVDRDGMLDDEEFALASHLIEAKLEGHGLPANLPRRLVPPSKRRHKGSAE
UniProt Q9Y6G9, whole entry, looked up: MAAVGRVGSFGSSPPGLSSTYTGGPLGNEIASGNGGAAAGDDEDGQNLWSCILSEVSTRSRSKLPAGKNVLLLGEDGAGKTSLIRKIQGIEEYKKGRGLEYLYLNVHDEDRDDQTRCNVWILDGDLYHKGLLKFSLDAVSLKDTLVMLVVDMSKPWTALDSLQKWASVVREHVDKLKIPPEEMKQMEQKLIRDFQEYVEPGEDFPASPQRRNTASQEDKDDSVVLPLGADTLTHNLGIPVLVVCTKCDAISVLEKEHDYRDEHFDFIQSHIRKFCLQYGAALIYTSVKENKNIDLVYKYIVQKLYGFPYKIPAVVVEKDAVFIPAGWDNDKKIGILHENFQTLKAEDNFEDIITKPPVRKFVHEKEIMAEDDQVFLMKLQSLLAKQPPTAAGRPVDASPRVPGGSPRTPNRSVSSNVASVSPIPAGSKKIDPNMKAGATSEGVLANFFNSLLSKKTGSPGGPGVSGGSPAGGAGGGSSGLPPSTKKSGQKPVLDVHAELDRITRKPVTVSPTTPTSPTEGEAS
UniProt Q9H410: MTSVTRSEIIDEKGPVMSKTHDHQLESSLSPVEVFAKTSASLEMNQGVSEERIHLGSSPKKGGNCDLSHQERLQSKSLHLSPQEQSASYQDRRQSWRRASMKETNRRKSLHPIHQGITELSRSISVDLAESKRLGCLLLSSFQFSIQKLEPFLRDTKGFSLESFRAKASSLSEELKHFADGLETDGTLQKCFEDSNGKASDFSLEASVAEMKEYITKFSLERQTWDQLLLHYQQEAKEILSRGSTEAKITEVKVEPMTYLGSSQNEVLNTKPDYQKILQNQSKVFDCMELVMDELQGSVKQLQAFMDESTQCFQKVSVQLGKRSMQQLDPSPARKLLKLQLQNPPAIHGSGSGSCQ
UniProt O75923: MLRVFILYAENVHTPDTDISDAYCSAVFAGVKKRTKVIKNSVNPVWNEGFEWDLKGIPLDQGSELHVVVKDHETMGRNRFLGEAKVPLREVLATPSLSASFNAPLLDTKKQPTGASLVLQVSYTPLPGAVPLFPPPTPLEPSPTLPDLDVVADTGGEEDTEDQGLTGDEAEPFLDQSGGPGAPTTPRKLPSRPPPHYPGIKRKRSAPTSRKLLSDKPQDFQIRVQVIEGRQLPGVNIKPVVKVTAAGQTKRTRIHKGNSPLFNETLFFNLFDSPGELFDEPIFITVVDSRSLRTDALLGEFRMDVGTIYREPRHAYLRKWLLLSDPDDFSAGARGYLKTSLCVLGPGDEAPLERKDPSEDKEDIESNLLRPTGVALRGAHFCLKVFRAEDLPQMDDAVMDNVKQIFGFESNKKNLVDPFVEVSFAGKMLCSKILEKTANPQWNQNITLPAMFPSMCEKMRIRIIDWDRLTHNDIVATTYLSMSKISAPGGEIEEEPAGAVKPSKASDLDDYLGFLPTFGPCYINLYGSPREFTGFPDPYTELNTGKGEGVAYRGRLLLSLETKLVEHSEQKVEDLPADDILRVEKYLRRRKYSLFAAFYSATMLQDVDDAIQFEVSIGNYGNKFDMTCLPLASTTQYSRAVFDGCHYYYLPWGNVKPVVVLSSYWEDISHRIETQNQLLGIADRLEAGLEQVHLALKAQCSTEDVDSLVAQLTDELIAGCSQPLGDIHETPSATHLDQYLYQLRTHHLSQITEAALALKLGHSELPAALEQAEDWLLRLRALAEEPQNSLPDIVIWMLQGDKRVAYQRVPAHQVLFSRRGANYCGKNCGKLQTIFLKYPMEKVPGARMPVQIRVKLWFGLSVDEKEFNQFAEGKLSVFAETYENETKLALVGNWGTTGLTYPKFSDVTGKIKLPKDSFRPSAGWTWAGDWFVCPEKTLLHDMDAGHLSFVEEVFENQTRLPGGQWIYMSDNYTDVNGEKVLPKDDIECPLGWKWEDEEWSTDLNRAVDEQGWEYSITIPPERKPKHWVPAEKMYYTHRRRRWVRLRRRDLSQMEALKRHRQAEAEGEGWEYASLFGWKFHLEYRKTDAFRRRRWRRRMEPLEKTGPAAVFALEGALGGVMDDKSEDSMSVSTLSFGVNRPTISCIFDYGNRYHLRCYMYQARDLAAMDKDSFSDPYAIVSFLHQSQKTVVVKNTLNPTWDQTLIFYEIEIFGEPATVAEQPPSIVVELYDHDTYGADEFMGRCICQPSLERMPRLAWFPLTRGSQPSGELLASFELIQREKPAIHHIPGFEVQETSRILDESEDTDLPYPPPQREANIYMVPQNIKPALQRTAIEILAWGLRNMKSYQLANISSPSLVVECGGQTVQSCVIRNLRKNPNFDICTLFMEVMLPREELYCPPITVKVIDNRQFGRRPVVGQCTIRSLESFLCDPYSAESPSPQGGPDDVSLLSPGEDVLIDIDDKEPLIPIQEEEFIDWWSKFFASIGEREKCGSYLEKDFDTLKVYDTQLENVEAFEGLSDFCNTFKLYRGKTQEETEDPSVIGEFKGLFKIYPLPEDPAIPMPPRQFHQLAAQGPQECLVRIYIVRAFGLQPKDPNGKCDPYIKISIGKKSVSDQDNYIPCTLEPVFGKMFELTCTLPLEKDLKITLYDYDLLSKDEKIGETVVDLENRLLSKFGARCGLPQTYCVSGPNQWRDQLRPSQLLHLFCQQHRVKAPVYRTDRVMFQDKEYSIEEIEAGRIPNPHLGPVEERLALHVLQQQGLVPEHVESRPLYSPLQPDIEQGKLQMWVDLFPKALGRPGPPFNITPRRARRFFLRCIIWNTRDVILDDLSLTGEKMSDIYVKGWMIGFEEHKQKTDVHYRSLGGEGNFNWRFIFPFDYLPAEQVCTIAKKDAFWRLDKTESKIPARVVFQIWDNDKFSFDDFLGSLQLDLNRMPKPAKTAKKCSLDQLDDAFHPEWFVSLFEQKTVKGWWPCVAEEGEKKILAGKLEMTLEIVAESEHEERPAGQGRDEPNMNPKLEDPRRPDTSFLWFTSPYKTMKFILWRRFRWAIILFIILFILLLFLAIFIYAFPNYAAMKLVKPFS
UniProt Q9C005, whole entry, looked up: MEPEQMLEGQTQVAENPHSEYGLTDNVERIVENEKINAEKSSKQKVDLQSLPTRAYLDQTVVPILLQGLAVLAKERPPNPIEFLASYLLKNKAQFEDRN
UniProt Q7L8W6: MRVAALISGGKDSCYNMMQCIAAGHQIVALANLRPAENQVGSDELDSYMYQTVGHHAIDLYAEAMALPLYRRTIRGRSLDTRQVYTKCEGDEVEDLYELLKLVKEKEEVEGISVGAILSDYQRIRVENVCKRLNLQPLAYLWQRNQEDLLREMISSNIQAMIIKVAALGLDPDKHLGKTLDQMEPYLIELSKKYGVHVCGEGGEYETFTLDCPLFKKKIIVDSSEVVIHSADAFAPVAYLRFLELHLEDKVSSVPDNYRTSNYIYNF
UniProt Q6ZPD9: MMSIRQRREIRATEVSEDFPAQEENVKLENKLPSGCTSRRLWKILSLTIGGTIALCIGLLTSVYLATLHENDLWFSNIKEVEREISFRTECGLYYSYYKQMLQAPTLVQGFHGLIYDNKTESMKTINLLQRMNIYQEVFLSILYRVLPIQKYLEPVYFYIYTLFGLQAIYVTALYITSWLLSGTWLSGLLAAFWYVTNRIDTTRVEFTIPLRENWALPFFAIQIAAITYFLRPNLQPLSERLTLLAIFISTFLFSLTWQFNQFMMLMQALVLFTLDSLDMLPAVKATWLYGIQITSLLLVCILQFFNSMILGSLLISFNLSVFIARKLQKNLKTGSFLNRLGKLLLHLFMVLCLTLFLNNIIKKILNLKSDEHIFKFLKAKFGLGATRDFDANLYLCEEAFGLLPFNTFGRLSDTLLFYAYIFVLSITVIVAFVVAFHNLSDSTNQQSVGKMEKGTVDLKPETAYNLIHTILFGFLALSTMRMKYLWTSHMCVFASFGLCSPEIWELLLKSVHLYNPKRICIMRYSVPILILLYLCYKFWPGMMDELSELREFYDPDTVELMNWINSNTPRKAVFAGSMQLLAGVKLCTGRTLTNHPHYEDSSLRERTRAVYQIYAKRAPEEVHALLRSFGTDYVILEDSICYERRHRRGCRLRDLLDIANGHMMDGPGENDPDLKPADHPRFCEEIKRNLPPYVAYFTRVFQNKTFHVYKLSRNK
UniProt Q9BQ95: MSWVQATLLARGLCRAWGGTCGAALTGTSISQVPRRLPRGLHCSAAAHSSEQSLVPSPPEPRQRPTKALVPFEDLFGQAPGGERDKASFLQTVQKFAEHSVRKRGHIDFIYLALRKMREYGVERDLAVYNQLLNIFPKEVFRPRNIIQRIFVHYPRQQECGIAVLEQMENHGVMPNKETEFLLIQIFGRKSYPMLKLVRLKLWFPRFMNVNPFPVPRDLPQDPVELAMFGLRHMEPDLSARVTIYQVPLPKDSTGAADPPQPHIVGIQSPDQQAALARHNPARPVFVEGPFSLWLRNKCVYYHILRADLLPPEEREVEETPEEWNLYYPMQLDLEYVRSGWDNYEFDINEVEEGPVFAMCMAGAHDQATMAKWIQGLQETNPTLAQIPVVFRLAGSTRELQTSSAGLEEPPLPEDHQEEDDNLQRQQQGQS
UniProt Q16610: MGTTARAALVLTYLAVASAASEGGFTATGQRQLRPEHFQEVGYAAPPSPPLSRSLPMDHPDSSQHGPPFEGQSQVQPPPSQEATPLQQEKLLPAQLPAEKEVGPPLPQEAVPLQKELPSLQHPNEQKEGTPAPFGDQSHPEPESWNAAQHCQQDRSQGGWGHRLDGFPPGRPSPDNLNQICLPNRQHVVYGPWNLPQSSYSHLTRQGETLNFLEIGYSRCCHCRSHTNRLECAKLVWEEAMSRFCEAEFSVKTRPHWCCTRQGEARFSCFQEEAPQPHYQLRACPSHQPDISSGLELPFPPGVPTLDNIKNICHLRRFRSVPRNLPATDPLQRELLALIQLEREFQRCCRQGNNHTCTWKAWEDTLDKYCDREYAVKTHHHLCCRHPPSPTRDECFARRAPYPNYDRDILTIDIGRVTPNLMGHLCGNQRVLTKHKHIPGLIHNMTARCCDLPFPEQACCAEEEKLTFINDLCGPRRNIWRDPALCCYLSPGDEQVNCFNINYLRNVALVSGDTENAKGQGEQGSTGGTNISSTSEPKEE

Assays:
Experiment in all cases: log2 fold change, soluble protein after heating vs DMSO (PISA); higher = thermal stabilisation; K562 lysate, 10 uM; active = over 0.2 and 3.5 SD of the protein, either way, in both replicates (recomputed)
[1] = compound: CCCS(=O)(=O)Nc1ccc(F)c(C(=O)c2c[nH]c3ncc(-c4ccc(Cl)cc4)cc23)c1F [vemurafenib]
Outline: (§1)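 Quantification was by TMTpro 16plex LC-MS/MS with equalised channel sums, applied to the supernatant after 21,000xg for 90 min. Samples were crude K562 extract at 1 mg/mL protein in PBS pH 7.4 with 1 mM MgCl2, treated with 10 μM compound for 30 min, heated for 3 min across 48°C-58°C, pooled and brought to 0.5% NP-40 at 4°C. Values are log-two fold changes in thermal stability relative to solvent controls, from duplicates.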

[2] = compound: CCCS(=O)(=O)Nc1ccc(F)c(C(=O)c2c[nH]c3ncc(Cl)cc23)c1F
Outline: as §1

[3] = compound: CCN(CCCOc1ccc2c(Nc3cc(CC(=O)Nc4cccc(F)c4)[nH]n3)ncnc2c1)CCOP(=O)(O)O [barasertib]
Outline: as §1

[4] = compound: CC[C@@H]1C(=O)N(C)c2cnc(Nc3ccc(C(=O)NC4CCN(C)CC4)cc3OC)nc2N1C1CCCC1
Outline: as §1

[5] = compound: CC[C@@H]1C(=O)N(C)c2cnc(Nc3ccc(C(=O)N[C@H]4CC[C@H](N5CCN(CC6CC6)CC5)CC4)cc3OC)nc2N1C(C)C [volasertib]
Outline: as §1

[6] = compound: CCn1c(C(=O)N(C2CC2)C2CC2)cc2c3c(ncn3C)c(Nc3cc(C)n(C)n3)nc21
Outline: as §1

[7] = compound: CCn1cc(-c2ccnc3[nH]c(-c4cccc(CN(C)C)c4)cc23)c(-c2ccc(NC(=O)N(C)C)cc2)n1
Outline: as §1

[8] = compound: CN1CCC(CNc2ccc3ncc(-c4cccc(OC(F)(F)F)c4)n3n2)CC1
Outline: as §1

[9] = compound: CN1CCN(CCOc2cc(OC3CCOCC3)c3c(Nc4c(Cl)ccc5c4OCO5)ncnc3c2)CC1 [saracatinib]
Outline: as §1

[10] = compound: CN1CCN(c2nc(C3=C(c4c[nH]c5ccccc45)C(=O)NC3=O)c3ccccc3n2)CC1 [sotrastaurin]
Outline: as §1

[11] = compound: CN1CC[C@H](c2c(O)cc(O)c3c(=O)cc(-c4ccccc4Cl)oc23)[C@H](O)C1 [alvocidib]
Outline: as §1

[12] = compound: CN1CCc2c(c3ccccc3n2Cc2ccc(C(=O)NO)cc2)C1 [Tubastatin A]
Outline: as §1

[13] = compound: CNC(=O)C1=CC=CC=C1NC2=NC(=NC=C2Cl)NC3=C(C=C(C=C3)N4CCOCC4)OC
Outline: as §1

[14] = compound: CNC(=O)c1ccc(Nc2ncc(C(F)(F)F)c(NCc3nccnc3N(C)S(C)(=O)=O)n2)cc1 [defactinib]
Outline: as §1

[15] = compound: CNc1nc(-c2ccc3c(N)n[nH]c3c2)cc(N2C[C@@H](C(=O)NC3CCCCC3)CC[C@H]2C)n1
Outline: as §1

[16] = compound: COC(=O)N[C@@H](C)CNc1nccc(-c2cn(C(C)C)nc2-c2cc(Cl)cc(NS(C)(=O)=O)c2F)n1 [encorafenib]
Outline: as §1

[17] = compound: COC(=O)[C@H](CCSC)NC(=O)C1=C(C=C(C=C1)NC[C@H](CS)N)C2=CC=CC=C2
Outline: as §1

[18] = compound: COc1cc(Nc2ncc3c(n2)-c2ccc(Cl)cc2C(c2c(F)cccc2OC)=NC3)ccc1C(=O)O [alisertib]
Outline: as §1

[19] = compound: COc1cc2nc(-c3cc(F)ccc3O)nc(N[C@@H]3CNC[C@H]3C(C)(C)O)c2cc1OC
Outline: as §1

[20] = compound: COc1cc2ncnc(Nc3ccc(F)c(Cl)c3)c2cc1OCCCN1CCOCC1 [gefitinib]
Outline: as §1

Measured: log2 fold change

EEF1E1 (UniProt O43324)
inactive: [1] 0.023 | [2] 0 | [3] 0.104 | [4] -0.043 | [5] -0.073 | [6] 0.002 | [7] -0.05 | [8] -0.01 | [9] -0.004 | [10] 0.03 | [11] 0.026 | [12] -0.088 | [13] -0.037 | [14] -0.018 | [15] -0.054 | [16] -0.017 | [17] 0.076 | [18] 0.023 | [19] 0.014 | [20] -0.002

EHD2 (UniProt Q9NZN4)
inactive: [1] 0.046 | [2] 0 | [3] 0.022 | [4] 0.007 | [5] -0.111 | [6] 0.005 | [7] 0.016 | [8] -0.066 | [9] 0.075 | [10] 0.017 | [11] -0.012 | [12] -0.051 | [13] 0.055 | [14] 0.032 | [15] -0.037 | [16] 0.001 | [17] 0.246 | [18] -0.015 | [19] 0.071 | [20] -0.04

DYNC1LI1 (UniProt Q9Y6G9)
inactive: [1] 0.029 | [2] 0 | [3] -0.004 | [4] 0.003 | [5] -0.03 | [6] 0.001 | [7] -0.048 | [8] 0.016 | [9] 0.002 | [10] 0.001 | [11] -0.004 | [12] -0.014 | [13] 0.002 | [14] 0.012 | [15] -0.014 | [16] 0.007 | [17] -0.069 | [18] 0.008 | [19] -0.002 | [20] -0.015

DSN1 (UniProt Q9H410)
inactive: [1] 0 | [2] 0.043 | [3] 0.007 | [4] 0.034 | [5] 0.001 | [6] 0.001 | [7] -0.017 | [8] 0.01 | [9] 0.034 | [10] 0.003 | [11] -0.046 | [12] -0.087 | [13] 0.076 | [14] 0.059 | [15] 0.04 | [16] 0.006 | [17] 0.107 | [18] -0.005 | [19] 0.004 | [20] 0

DYSF isoform 13 (UniProt O75923)
inactive: [1] 0.01 | [2] 0.019 | [3] 0.06 | [4] 0.04 | [5] -0.091 | [6] -0.096 | [7] -0.009 | [8] 0.037 | [9] 0.011 | [10] -0.008 | [11] -0.035 | [12] 0.12 | [13] 0 | [14] -0.133 | [15] 0.184 | [16] -0.089 | [17] 0.013 | [19] 0.127

DPY30 (UniProt Q9C005)
inactive: [1] -0.069 | [2] -0.022 | [4] 0.033 | [5] 0.068 | [6] 0.041 | [7] 0 | [8] -0.035 | [9] 0.005 | [10] 0.062 | [11] 0.258 | [12] 0.054 | [13] 0.08 | [14] 0.171 | [15] 0.028 | [16] -0.02 | [17] 0.049 | [18] -0.14 | [19] -0.149 | [20] -0.307

EI24 (UniProt O14681)
inactive: [1] 0.08 | [2] 0.028 | [3] 0.027 | [4] -0.063 | [5] 0.009 | [6] 0.048 | [7] 0.21 | [8] -0.084 | [9] -0.017 | [10] -0.055 | [11] 0.07 | [12] 0.031 | [13] -0.03 | [14] 0.016 | [15] -0.042 | [16] 0.093 | [17] -0.014 | [18] 0.025 | [19] -0.01 | [20] 0.009

Copied from above (2 entries):
DPY30 (UniProt Q9C005)
inactive: [1] -0.069 | [2] -0.022 | [4] 0.033 | [5] 0.068 | [6] 0.041 | [7] 0 | [8] -0.035 | [9] 0.005 | [10] 0.062 | [11] 0.258 | [12] 0.054 | [13] 0.08 | [14] 0.171 | [15] 0.028 | [16] -0.02 | [17] 0.049 | [18] -0.14 | [19] -0.149 | [20] -0.307

EI24 (UniProt O14681)
inactive: [1] 0.08 | [2] 0.028 | [3] 0.027 | [4] -0.063 | [5] 0.009 | [6] 0.048 | [7] 0.21 | [8] -0.084 | [9] -0.017 | [10] -0.055 | [11] 0.07 | [12] 0.031 | [13] -0.03 | [14] 0.016 | [15] -0.042 | [16] 0.093 | [17] -0.014 | [18] 0.025 | [19] -0.01 | [20] 0.009

Next records:

DPH6 (UniProt Q7L8W6)
inactive: [1] 0.047 | [2] 0.025 | [3] 0 | [4] 0.017 | [5] -0.055 | [6] 0.023 | [7] -0.002 | [8] 0.057 | [9] -0.006 | [10] 0.01 | [11] -0.015 | [12] -0.09 | [13] -0.023 | [14] -0.011 | [15] -0.112 | [16] 0.036 | [17] -0.097 | [18] 0.022 | [19] 0.02 | [20] 0.052

DTX3L (UniProt Q8TDB6)
inactive: [1] 0.117 | [3] 0.142 | [4] 0.004 | [6] 0.057 | [7] 0.116 | [8] 0.008 | [9] 0.043 | [10] 0.021 | [11] 0.05 | [12] 0.008 | [13] 0.076 | [14] 0.101 | [15] 0.041 | [16] 0.03 | [17] 0.233

DPY19L3 (UniProt Q6ZPD9)
inactive: [1] 0.258 | [2] 0.05 | [3] 0.071 | [4] 0.043 | [5] -0.007 | [10] 0.051 | [13] -0.105 | [14] -0.039 | [16] 0 | [17] -0.096 | [19] -0.042

ECSIT (UniProt Q9BQ95)
inactive: [1] -0.027 | [2] 0.014 | [3] -0.008 | [4] -0.006 | [5] 0.004 | [6] 0.02 | [7] -0.026 | [8] 0.013 | [9] -0.006 | [10] 0.047 | [11] 0.041 | [12] 0.041 | [13] 0.01 | [14] -0.038 | [15] -0.011 | [16] -0.018 | [17] 0.019 | [18] -0.045 | [19] 0.023 | [20] 0.019

ECM1 isoform 4 (UniProt Q16610)
inactive: [1] 0.005 | [2] 0.003 | [3] -0.054 | [4] 0.121 | [5] -0.014 | [6] -0.037 | [7] 0.018 | [8] 0.074 | [9] 0.035 | [10] 0.024 | [11] -0.012 | [12] 0.039 | [13] 0.019 | [14] -0.033 | [15] 0.003 | [16] 0.004 | [17] -0.037 | [18] -0.014 | [19] -0.02 | [20] 0.047
